These results are taken from paper PMC5133898.

Sequences of proteins named here, by UniProt entry; tags and fusion partners are left off. A change or cut given only in a name is not applied to a line headed by its entry.
UniProt P24385: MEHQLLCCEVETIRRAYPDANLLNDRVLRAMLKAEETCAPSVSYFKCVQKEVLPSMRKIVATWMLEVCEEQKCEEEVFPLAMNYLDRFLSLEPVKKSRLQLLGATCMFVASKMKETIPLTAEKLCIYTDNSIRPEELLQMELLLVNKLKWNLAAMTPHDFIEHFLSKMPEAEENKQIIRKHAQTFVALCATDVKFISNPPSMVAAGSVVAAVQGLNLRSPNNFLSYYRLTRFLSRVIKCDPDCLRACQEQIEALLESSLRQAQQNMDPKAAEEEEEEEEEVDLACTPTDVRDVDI
UniProt Q9Y297: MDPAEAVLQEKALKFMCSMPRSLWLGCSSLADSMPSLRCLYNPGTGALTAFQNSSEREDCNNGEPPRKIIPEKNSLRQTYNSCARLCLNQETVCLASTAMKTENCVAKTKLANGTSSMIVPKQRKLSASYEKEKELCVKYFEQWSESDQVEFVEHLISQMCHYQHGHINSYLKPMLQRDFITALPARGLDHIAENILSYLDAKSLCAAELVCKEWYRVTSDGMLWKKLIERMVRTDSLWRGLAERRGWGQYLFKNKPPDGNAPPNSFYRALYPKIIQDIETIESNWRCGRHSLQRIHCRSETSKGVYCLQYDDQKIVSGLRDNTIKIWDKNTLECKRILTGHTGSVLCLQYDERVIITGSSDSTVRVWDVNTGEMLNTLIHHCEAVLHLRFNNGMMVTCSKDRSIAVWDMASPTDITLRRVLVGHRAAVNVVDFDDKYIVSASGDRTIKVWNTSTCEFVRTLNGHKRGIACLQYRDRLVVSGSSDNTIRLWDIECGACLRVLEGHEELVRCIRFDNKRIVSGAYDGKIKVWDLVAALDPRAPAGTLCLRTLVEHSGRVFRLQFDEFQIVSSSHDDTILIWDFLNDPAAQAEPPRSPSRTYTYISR

The target of experiment [1] is HA-tagged Cyclin D1 T286A mutant (UniProt P24385). Kind of experiment: co-IP; HepG2 cells transfected with pcDNA3 HA-Cyclin D1 wt or T286A, treated with berberine for 6 h; complex precipitated with HA antibody; β-TrCP and Cyclin D1 detected by immunoblot.
Experiment [2] deals with HA-tagged Cyclin D1 (wild-type) (UniProt P24385). The experiment is described as above.
Experiment [3] concerns the target Cyclin D1 (endogenous, HepG2 cells) (human (endogenous in HepG2)) (UniProt P24385). Kind of experiment: co-IP; HepG2 cells treated with berberine for 6 h in the presence of MG-132 (20 nM); NP-40 lysate; endogenous Cyclin D1 precipitated with Cyclin D1 antibody on Dynabeads protein G; β-TrCP detected by immunoblot.

Results are given in words; binding and its absence hold for the method and conditions named. In cells and extracts the contact can be indirect. Some entries that bind do so weakly or less than the wild type.

Turning to “β-transducin repeat-containing protein (β-TrCP), endogenous in HepG2 cells (from UniProt Q9Y297 1-605)”, the binding entry in experiment [1] is listed as “no binding”; in experiment [2], “binds”; in experiment [3], “binds”.
